PubChem BioAssay AID1053208 – Peter MacCallum Cancer Centre, 2014
Screen: 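Genes whose silencing cuts survival of bone tumour cells only with doxorubicin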 (primary screen). Cell system: mouse osteosarcoma cells, early-passage culture from an engineered mouse model of fibroblastic bone tumour. Reagents: siRNA pool against mouse genes, 40 nM. Duration: about 120 h (48 h before drug, then 72 h with drug). Conditions: doxorubicin 100 nM for 72 h, roughly 30-40% inhibitory dose. Measurement: 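Viability read as ATP luminescence after 72 h of 100 nM doxorubicin or none, duplicate wells averaged, scaled to non-targeting siRNA, then expressed as robust z-scores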. Direction: viability z-score with doxorubicin: higher = more viable cells under doxorubicin; viability z-score without drug: higher = more viable cells with knock-down alone. Rule for the call: 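Called active if knock-down leaves viability unchanged without drug (z within -2 to 2) but lowers it with doxorubicin (z at or under -2)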.
The whole screen tested about 17,000 reagents; shown is a part drawn at random. 788 of them (4.7%) were called active. 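Calls rest on z-score classes alone; an extra cut-off of viability at most 70% of control was not applied to them.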 A number with no mark means an inactive call. Further read-outs or replicates are left out here.

V1rd19 — combined z-score class = no change with or without drug; viability z-score with doxorubicin = -0.9; viability z-score without drug = -0.67
Chmp1b — combined z-score class = no change with or without drug; viability z-score with doxorubicin = 1.12; viability z-score without drug = 1.69
T — combined z-score class = no change with or without drug; viability z-score with doxorubicin = 1.91; viability z-score without drug = 1.52
Etnk2 — combined z-score class = no change with or without drug; viability z-score with doxorubicin = -0.9; viability z-score without drug = -0.84
Tas2r102 — combined z-score class = low cell count with doxorubicin only (active); viability z-score with doxorubicin = -3.04; viability z-score without drug = 0.34
Rgl2 — combined z-score class = no change with or without drug; viability z-score with doxorubicin = -0.11; viability z-score without drug = -0.67
Def8 — combined z-score class = no change with or without drug; viability z-score with doxorubicin = -0.9; viability z-score without drug = 0.51
Wdr48 — combined z-score class = no change with or without drug; viability z-score with doxorubicin = 0.67; viability z-score without drug = 0.51
Rdh10 — combined z-score class = no change with or without drug; viability z-score with doxorubicin = -0.9; viability z-score without drug = -0.17
Mrpl42 — combined z-score class = no change with or without drug; viability z-score with doxorubicin = 0; viability z-score without drug = -1.01
Shkbp1 — combined z-score class = no change with or without drug; viability z-score with doxorubicin = -0.9; viability z-score without drug = -0.51
Or4x11 — combined z-score class = no change with or without drug; viability z-score with doxorubicin = -0.45; viability z-score without drug = -1.85
Tmem107 — combined z-score class = no change with or without drug; viability z-score with doxorubicin = 0; viability z-score without drug = 1.52
Slc25a28 — combined z-score class = no change with or without drug; viability z-score with doxorubicin = 0; viability z-score without drug = 1.35
Npas2 — combined z-score class = no change with or without drug; viability z-score with doxorubicin = 0.56; viability z-score without drug = -0.84
Eogt — combined z-score class = no change with or without drug; viability z-score with doxorubicin = -1.35; viability z-score without drug = -0.17
Tram2 — combined z-score class = no change with or without drug; viability z-score with doxorubicin = -1.12; viability z-score without drug = 1.18
Hdgfl1 — combined z-score class = no change with or without drug; viability z-score with doxorubicin = 1.57; viability z-score without drug = -1.52
Fuom — combined z-score class = no change with or without drug; viability z-score with doxorubicin = 0.9; viability z-score without drug = 1.69
Smc1a — combined z-score class = low cell count with and without drug; viability z-score with doxorubicin = -3.04; viability z-score without drug = -2.19
Plac8 — combined z-score class = no change with or without drug; viability z-score with doxorubicin = 0.56; viability z-score without drug = 0.51
Smtnl2 — combined z-score class = no change with or without drug; viability z-score with doxorubicin = 0.9; viability z-score without drug = 0.34
Gdf2 — combined z-score class = no change with or without drug; viability z-score with doxorubicin = -1.8; viability z-score without drug = -1.52
Pi16 — combined z-score class = no change with or without drug; viability z-score with doxorubicin = 0.11; viability z-score without drug = -0.84
Cep19 — combined z-score class = no change with or without drug; viability z-score with doxorubicin = 1.12; viability z-score without drug = 0
Arc — combined z-score class = no change with or without drug; viability z-score with doxorubicin = -0.22; viability z-score without drug = 0.17
Klrb1f — combined z-score class = no change with or without drug; viability z-score with doxorubicin = -0.9; viability z-score without drug = -1.01
Cd1d1 — combined z-score class = no change with or without drug; viability z-score with doxorubicin = 0.9; viability z-score without drug = 0.84
Fcmr — combined z-score class = no change with or without drug; viability z-score with doxorubicin = 0.22; viability z-score without drug = 1.18
Slc7a10 — combined z-score class = low cell count with doxorubicin only (active); viability z-score with doxorubicin = -2.36; viability z-score without drug = -1.18
Nup188 — combined z-score class = low cell count with and without drug; viability z-score with doxorubicin = -3.15; viability z-score without drug = -2.19
B3gnt2 — combined z-score class = no change with or without drug; viability z-score with doxorubicin = 0.34; viability z-score without drug = 1.52
Rmi1 — combined z-score class = no change with or without drug; viability z-score with doxorubicin = -0.9; viability z-score without drug = -0.51
Desi1 — combined z-score class = no change with or without drug; viability z-score with doxorubicin = 0.45; viability z-score without drug = 0.34
Pak5 — combined z-score class = no change with or without drug; viability z-score with doxorubicin = -0.22; viability z-score without drug = -1.35
Snx31 — combined z-score class = no change with or without drug; viability z-score with doxorubicin = -0.22; viability z-score without drug = -0.17

Part of the list above, showing only “viability z-score without drug”:
Slc7a10 = -1.18 (active)
Nup188 = -2.19
B3gnt2 = 1.52
Rmi1 = -0.51
